For at least one compound, name, drawing or mass did not settle the structure.
What was measured:
[1] = test system: patients with male pattern alopecia; settings: topical, after four months of treatment; cited from earlier work
[2] = test system: hair growth; test: Hair growth stimulation by comparison agents; type: in vivo; settings: 2%, applied topically once daily for 20 days, 20 μl cm^−2
[3] = test system: macaque monkey model; settings: cited from earlier work

In the case of `Nc1cc(N2CCCCC2)nc(N)[n+]1[O-]` [minoxidil], the “terminal hair regrowth, minoxidil vs placebo (investigator's evaluation)” value [1] is given as “no significant increase in terminal hair regrowth between minoxidil and placebo treatment groups”, the “induction of hair growth” value [2] is given as “not effective in inducing hair growth” and the “persistence of hair after treatment discontinued” value [3] is given as “substantially all hair grown during minoxidil treatment was lost within six months of treatment being discontinued”.
